Assay results as given in the supplement of paper PMC10849652.
The other results are listed elsewhere or left out.

Chains of the proteins cited; added tags and fusions are not shown. Lines headed by an entry give the natural chain unless they say otherwise; changes in a name come on top.
UniProt Q86W56: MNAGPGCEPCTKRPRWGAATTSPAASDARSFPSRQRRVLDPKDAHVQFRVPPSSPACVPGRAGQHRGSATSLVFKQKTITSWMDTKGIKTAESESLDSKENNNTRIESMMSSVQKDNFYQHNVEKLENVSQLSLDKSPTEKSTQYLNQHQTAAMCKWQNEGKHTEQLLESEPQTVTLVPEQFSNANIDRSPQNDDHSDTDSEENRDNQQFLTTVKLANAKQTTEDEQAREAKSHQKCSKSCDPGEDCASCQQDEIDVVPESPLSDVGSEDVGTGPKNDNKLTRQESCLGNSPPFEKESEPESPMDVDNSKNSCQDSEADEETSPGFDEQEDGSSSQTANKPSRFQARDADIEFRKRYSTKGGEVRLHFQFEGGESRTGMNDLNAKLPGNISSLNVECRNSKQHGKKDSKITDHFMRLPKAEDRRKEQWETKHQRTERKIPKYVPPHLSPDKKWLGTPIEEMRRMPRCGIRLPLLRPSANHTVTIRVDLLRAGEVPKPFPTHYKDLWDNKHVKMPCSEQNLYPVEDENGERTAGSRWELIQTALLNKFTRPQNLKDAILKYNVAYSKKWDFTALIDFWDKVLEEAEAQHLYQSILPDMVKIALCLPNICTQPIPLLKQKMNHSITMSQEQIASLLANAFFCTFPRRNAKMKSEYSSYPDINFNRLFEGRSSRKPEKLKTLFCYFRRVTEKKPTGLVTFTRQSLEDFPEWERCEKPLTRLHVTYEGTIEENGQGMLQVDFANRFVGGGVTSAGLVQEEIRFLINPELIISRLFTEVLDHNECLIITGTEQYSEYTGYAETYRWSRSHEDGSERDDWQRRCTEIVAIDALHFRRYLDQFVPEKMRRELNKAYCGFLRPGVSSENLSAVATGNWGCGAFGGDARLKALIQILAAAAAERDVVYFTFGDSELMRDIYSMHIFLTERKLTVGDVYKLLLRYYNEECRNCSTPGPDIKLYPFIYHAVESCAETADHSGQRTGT
UniProt Q9NTK5, whole entry, looked up: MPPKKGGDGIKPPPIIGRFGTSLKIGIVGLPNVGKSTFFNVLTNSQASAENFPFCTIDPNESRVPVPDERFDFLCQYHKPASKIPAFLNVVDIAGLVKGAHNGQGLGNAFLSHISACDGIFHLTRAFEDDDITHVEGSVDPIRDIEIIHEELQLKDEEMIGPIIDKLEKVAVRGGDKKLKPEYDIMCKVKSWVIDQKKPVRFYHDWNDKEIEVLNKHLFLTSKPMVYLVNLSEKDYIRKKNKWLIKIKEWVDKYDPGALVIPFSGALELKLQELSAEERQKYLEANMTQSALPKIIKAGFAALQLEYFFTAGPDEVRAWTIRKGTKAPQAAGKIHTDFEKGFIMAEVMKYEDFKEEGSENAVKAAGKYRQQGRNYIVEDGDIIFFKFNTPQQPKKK
UniProt Q9NP74: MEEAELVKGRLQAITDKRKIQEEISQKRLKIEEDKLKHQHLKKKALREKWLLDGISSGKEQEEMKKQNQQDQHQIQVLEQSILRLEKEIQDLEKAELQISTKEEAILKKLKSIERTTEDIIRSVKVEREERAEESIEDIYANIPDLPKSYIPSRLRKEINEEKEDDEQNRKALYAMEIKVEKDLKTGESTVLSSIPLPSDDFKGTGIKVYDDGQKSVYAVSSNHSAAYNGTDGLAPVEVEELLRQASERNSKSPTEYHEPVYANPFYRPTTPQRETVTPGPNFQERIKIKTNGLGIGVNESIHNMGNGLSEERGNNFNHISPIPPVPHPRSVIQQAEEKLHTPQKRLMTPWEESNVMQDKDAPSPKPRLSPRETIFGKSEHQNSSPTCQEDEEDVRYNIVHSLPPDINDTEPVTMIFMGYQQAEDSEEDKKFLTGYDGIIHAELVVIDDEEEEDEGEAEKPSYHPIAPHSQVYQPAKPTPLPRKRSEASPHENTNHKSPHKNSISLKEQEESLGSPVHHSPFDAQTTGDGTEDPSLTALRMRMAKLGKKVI
UniProt Q9UKX7: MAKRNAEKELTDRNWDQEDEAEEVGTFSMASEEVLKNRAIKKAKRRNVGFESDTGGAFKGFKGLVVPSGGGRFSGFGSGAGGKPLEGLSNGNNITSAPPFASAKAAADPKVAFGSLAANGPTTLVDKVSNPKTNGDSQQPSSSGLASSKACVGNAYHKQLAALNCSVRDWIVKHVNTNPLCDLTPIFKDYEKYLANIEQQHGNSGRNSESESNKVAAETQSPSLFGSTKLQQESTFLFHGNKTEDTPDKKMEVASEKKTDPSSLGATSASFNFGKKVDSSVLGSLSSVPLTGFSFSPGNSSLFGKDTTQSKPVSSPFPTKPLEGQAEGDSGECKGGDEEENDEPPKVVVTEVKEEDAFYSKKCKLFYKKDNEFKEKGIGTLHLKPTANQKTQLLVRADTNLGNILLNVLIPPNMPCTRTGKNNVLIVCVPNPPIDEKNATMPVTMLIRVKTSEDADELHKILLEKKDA
UniProt Q9NVE7: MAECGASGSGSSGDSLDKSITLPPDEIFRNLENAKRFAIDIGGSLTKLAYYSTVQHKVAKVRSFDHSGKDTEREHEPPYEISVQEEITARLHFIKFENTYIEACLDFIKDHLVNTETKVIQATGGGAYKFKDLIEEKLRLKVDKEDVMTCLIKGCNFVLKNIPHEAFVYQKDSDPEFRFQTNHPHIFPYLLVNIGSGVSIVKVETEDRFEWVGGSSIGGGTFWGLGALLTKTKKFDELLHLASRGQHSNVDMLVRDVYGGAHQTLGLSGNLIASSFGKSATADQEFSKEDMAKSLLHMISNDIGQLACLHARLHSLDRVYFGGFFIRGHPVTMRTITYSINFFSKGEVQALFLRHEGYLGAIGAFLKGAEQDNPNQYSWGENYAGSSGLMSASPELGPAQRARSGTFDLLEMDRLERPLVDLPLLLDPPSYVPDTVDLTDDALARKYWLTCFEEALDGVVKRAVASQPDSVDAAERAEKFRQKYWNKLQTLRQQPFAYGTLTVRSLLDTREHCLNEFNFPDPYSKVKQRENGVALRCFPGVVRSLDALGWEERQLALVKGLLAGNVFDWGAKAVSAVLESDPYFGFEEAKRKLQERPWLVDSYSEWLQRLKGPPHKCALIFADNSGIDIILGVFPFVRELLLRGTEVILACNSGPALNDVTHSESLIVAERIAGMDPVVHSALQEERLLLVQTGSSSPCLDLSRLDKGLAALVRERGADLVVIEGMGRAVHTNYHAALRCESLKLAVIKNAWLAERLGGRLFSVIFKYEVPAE
UniProt Q8NFH4: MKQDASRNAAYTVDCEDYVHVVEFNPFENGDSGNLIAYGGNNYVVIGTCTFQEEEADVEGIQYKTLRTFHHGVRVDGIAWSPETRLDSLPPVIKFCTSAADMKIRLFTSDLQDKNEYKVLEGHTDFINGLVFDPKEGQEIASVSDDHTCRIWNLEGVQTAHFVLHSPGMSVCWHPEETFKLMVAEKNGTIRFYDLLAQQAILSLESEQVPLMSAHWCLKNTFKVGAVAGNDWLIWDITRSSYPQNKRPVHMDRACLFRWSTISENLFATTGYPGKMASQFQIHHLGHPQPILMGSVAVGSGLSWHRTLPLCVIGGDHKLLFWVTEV
UniProt O14841: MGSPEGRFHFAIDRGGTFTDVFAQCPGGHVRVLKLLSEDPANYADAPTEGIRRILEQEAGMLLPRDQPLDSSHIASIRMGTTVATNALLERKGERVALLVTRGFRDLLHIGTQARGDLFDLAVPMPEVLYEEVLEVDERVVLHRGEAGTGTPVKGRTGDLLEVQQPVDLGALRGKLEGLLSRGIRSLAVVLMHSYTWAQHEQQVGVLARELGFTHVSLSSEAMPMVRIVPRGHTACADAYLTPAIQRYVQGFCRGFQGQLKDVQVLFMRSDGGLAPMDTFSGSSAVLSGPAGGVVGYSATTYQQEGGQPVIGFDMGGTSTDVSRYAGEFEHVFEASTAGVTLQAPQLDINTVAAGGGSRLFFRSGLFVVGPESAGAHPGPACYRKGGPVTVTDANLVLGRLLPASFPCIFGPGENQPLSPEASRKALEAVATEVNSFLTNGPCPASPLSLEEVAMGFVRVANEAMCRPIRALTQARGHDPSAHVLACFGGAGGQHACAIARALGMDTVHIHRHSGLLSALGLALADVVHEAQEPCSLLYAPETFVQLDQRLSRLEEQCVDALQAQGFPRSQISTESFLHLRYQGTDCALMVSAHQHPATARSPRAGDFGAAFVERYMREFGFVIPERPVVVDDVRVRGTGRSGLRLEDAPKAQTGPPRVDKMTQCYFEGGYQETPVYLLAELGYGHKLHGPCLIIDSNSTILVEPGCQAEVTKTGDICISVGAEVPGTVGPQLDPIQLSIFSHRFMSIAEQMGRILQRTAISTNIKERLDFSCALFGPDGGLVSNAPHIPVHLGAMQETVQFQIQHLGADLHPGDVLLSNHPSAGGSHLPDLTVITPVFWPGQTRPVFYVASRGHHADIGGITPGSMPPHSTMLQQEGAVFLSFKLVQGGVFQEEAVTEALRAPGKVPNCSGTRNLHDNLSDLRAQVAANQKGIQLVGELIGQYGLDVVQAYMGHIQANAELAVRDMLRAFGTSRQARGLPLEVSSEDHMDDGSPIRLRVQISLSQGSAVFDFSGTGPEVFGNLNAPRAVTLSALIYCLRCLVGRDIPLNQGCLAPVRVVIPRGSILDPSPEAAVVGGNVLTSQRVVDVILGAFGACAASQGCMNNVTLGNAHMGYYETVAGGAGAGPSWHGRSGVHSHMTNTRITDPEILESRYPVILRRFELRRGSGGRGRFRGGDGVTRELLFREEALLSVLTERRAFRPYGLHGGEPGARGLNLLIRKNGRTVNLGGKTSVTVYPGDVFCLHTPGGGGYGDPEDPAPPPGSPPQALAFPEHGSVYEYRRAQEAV
UniProt Q5SWX8: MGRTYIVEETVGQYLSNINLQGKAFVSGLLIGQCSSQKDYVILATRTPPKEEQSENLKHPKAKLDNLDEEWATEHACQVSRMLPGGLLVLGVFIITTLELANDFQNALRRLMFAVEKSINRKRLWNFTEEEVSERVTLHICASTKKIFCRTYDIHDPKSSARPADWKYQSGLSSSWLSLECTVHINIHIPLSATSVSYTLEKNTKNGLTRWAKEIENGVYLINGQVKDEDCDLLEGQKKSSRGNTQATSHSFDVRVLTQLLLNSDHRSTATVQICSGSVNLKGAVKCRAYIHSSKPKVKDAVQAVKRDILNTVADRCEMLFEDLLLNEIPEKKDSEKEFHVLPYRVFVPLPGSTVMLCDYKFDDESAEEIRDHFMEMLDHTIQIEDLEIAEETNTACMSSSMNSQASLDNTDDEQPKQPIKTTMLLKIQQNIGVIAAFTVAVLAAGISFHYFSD
UniProt Q96G74: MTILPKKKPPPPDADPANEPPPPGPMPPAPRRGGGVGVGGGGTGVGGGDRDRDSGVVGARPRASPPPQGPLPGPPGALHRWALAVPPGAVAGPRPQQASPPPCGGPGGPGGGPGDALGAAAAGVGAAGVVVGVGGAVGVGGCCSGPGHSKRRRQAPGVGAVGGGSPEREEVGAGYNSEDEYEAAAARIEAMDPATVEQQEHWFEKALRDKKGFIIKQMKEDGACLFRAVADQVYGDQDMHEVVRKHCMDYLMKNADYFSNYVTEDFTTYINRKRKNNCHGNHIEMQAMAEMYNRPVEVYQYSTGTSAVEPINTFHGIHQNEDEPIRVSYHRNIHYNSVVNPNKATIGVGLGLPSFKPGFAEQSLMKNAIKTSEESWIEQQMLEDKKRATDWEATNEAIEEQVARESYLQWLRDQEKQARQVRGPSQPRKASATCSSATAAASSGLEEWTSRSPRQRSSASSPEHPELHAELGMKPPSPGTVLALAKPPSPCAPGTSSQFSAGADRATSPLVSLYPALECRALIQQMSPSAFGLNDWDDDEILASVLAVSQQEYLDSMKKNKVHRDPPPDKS
UniProt Q9UBD5: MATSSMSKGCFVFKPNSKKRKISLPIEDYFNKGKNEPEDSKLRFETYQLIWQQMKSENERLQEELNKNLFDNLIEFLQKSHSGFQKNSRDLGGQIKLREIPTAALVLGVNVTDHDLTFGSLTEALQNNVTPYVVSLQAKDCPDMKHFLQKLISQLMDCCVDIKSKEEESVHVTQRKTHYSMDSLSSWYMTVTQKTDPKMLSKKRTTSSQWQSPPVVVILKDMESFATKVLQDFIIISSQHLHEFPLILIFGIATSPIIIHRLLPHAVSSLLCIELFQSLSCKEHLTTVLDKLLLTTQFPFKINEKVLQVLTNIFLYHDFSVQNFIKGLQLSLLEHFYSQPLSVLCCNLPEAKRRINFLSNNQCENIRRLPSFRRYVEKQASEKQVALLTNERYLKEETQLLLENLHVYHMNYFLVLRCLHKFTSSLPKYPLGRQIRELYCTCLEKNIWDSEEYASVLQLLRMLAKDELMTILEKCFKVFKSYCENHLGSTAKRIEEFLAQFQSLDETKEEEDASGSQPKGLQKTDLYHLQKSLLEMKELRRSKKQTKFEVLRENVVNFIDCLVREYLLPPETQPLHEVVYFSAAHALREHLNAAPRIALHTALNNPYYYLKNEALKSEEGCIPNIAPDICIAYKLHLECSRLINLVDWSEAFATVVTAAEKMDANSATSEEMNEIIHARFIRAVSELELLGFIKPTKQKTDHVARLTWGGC

Key:
Assay in all cases: log2 fold change, soluble protein after heating vs DMSO (PISA); higher = thermal stabilisation; K562 lysate, 10 uM; active = over 0.2 and 3.5 SD of the protein, either way, in both replicates (recomputed)
[1] = compound: C#Cc1cccc(Nc2ncnc3cc(OCCOC)c(OCCOC)cc23)c1 [erlotinib]
How it was run: (§1)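 A 30 min treatment with 10 μM compound was applied to crude K562 extract at 1 mg/mL protein in PBS pH 7.4 with 1 mM MgCl2. Heating for 3 min spanned 48°C-58°C, after which aliquots were pooled, adjusted to 0.5% NP-40 at 4°C and spun at 21,000xg for 90 min. TMTpro 16plex LC-MS/MS of the supernatant, with channel sums equalised, gave values recorded as log-two fold change in thermal stability against solvent controls, from duplicates.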

[2] = compound: C/C(=N\NC(=O)C1=CC(=CC=C1)S(=O)(=O)N2CCOCC2)/C3=C(C=CC(=C3)Cl)O
How it was run: as §1

[3] = compound: C1=CC(=CC=C1C2=NC3=C(N2)C=C(C=C3)C(=O)N)OC4=CC=C(C=C4)Cl
How it was run: as §1

[4] = compound: C1=CC2=C(C=CC(=C2)/C=C\3/C(=O)NC(=NCC4=CC=CS4)S3)N=C1
How it was run: as §1

[5] = compound: C1=CC2=NC=CN=C2C=C1/C=C/3\C(=O)NC(=O)S3
How it was run: as §1

[6] = compound: C1=CC=C(C=C1)C2=NC(=C(N2)C3=CC=NC=C3)C4=CC(=C(C=C4)Cl)O
How it was run: as §1

[7] = compound: C1=CC=C2C(=C1)C3=NNC4=CC=CC(=C43)C2=O
How it was run: as §1

[8] = compound: C1CCN(C1)C(=O)NC2=CC=CC(=C2)NC3=NC=C(C(=N3)NCCC4=CN=CN4)Br
How it was run: as §1

[9] = compound: C1CN(CCC1(CC2=CC=C(C=C2)Cl)N)C3=NC=NC4=C3C=CN4
How it was run: as §1

[10] = compound: C1COCCN1CCN2C3=CC=CC=C3N=C2NC(=O)C4=CC(=CC=C4)[N+](=O)[O-] [IRAK-1-4 Inhibitor I]
How it was run: as §1

Measured: log2 fold change

OSBP (UniProt P22059)
inactive: [1] -0.023 | [2] -0.056 | [3] 0.037 | [4] -0.006 | [5] 0.017 | [6] -0.031 | [7] -0.031 | [8] -0.016 | [9] 0.016 | [10] -0.112

OSBPL8 (UniProt Q9BZF1)
inactive: [1] -0.003 | [2] 0.094 | [3] -0.056 | [4] -0.015 | [5] -0.052 | [6] -0.049 | [7] -0.085 | [8] -0.12 | [9] 0.021 | [10] 0.03

PARG (UniProt Q86W56)
inactive: [1] 0.009 | [2] -0.013 | [3] -0.062 | [4] 0.008 | [5] -0.011 | [6] 0.004 | [7] -0.013 | [8] 0.003 | [9] -0.011 | [10] 0.048

PARD6B (UniProt Q9BYG5)
inactive: [1] 0.018 | [2] -0.01 | [3] -0.003 | [4] 0.005 | [5] 0.029 | [6] 0.009 | [7] 0.019 | [8] 0.039 | [9] 0.023 | [10] -0.036

P4HA2 (UniProt O15460)
inactive: [1] 0.017 | [2] -0.126 | [3] -0.038 | [4] 0.027 | [5] -0.053 | [6] 0 | [7] -0.027 | [8] -0.028 | [9] 0.045 | [10] 0.078

OLA1 (UniProt Q9NTK5)
inactive: [1] 0.038 | [2] 0.031 | [3] 0.029 | [4] -0.02 | [5] 0.02 | [6] 0.007 | [7] -0.048 | [8] 0.022 | [9] 0.02 | [10] -0.02

PAIP1 (UniProt Q9H074)
inactive: [1] -0.031 | [2] -0.069 | [3] 0.032 | [4] 0.041 | [5] 0 | [6] 0.012 | [7] 0.039 | [8] -0.011 | [9] -0.003 | [10] -0.025

NUP93 (UniProt Q8N1F7)
inactive: [1] 0.025 | [2] 0.058 | [3] -0.042 | [4] 0.021 | [5] 0.032 | [6] -0.022 | [7] -0.049 | [8] 0.002 | [9] 0.015 | [10] -0.022

NUP98 (UniProt P52948)
inactive: [1] -0.018 | [2] 0.017 | [3] 0.023 | [4] -0.026 | [5] 0.005 | [6] -0.079 | [7] -0.004 | [8] 0.015 | [9] 0.021 | [10] 0.002

PARL (UniProt Q9H300)
inactive: [1] 0.018 | [2] -0.138 | [3] -0.105 | [4] 0.002 | [5] 0.021 | [6] -0.014 | [7] -0.025 | [8] 0.017 | [9] 0.002 | [10] -0.006

PALMD (UniProt Q9NP74)
inactive: [1] -0.055 | [2] -0.006 | [3] -0.026 | [4] 0.07 | [5] 0.042 | [6] -0.057 | [7] 0.019 | [8] 0.009 | [9] -0.019 | [10] -0.012

PACSIN2 (UniProt Q9UNF0)
inactive: [1] 0.012 | [2] -0.043 | [3] -0.019 | [4] -0.007 | [5] -0.009 | [6] 0.009 | [7] 0.026 | [8] 0.01 | [9] 0.021 | [10] -0.021

ODF2 (UniProt Q5BJF6)
inactive: [1] 0.092 | [2] -0.003 | [3] -0.027 | [4] 0.043 | [5] -0.056 | [6] 0.145 | [7] 0.023 | [8] -0.12 | [9] 0.141 | [10] 0.107

NUP50 (UniProt Q9UKX7)
inactive: [1] 0.012 | [2] -0.064 | [3] 0.02 | [4] -0.005 | [5] -0.014 | [6] 0.012 | [7] -0.001 | [8] -0.025 | [9] -0.001 | [10] -0.012

PAGE5 (UniProt Q96GU1)
inactive: [1] 0.074 | [2] 0.05 | [3] -0.027 | [4] 0.034 | [5] -0.019 | [6] -0.049 | [7] 0.059 | [8] -0.074 | [9] -0.006 | [10] -0.103

PANK4 (UniProt Q9NVE7)
inactive: [1] 0.013 | [2] -0.012 | [3] 0.003 | [4] 0.051 | [5] 0.033 | [6] 0.003 | [7] -0.052 | [8] -0.002 | [9] 0.018 | [10] 0.018

NUP37 (UniProt Q8NFH4)
inactive: [1] 0.008 | [2] 0.008 | [3] -0.028 | [4] -0.031 | [5] 0.028 | [6] -0.016 | [7] -0.025 | [8] -0.003 | [9] -0.008 | [10] -0.063

2 neighbouring records out of the list so far, for reference:
PAGE5 (UniProt Q96GU1)
inactive: [1] 0.074 | [2] 0.05 | [3] -0.027 | [4] 0.034 | [5] -0.019 | [6] -0.049 | [7] 0.059 | [8] -0.074 | [9] -0.006 | [10] -0.103

PANK4 (UniProt Q9NVE7)
inactive: [1] 0.013 | [2] -0.012 | [3] 0.003 | [4] 0.051 | [5] 0.033 | [6] 0.003 | [7] -0.052 | [8] -0.002 | [9] 0.018 | [10] 0.018

Remaining list, next part

NUP58 (UniProt Q9BVL2)
inactive: [1] -0.006 | [2] -0.006 | [3] 0.004 | [4] -0.009 | [5] -0.028 | [6] -0.026 | [7] -0.046 | [8] 0.008 | [9] 0.02 | [10] 0.034

OPLAH (UniProt O14841)
inactive: [1] 0.044 | [2] 0.005 | [3] -0.017 | [4] 0.03 | [5] 0.106 | [6] 0.041 | [7] 0.007 | [8] 0.013 | [9] -0.017 | [10] -0.014

ODR4 (UniProt Q5SWX8)
inactive: [1] -0.08 | [2] 0 | [3] 0.009 | [4] -0.01 | [5] -0.02 | [6] -0.041 | [7] 0 | [8] -0.022 | [9] -0.074 | [10] 0.045

PACSIN1 (UniProt Q9BY11)
inactive: [1] -0.042 | [2] -0.055 | [3] -0.019 | [4] 0.019 | [5] 0.032 | [6] -0.118 | [7] 0.044 | [8] -0.027 | [9] -0.019 | [10] 0.041

PACSIN3 (UniProt Q9UKS6)
inactive: [1] 0.044 | [2] 0.102 | [3] -0.029 | [4] -0.027 | [5] 0.005 | [6] 0.047 | [7] -0.115 | [8] 0.076 | [9] 0.089 | [10] -0.004

NUP188 (UniProt Q5SRE5)
inactive: [1] 0.066 | [2] 0.011 | [3] -0.01 | [4] 0.004 | [5] -0.007 | [6] -0.03 | [7] -0.034 | [8] 0.027 | [9] -0.003 | [10] 0.023

OTUD4 (UniProt Q01804)
inactive: [1] -0.004 | [2] -0.043 | [3] 0 | [4] -0.071 | [5] -0.069 | [6] -0.006 | [7] -0.024 | [8] -0.004 | [9] 0.019 | [10] -0.035

OTUD5 isoform 5 (UniProt Q96G74)
inactive: [1] 0.009 | [2] -0.069 | [3] 0.034 | [4] 0.052 | [5] 0.012 | [6] 0.042 | [7] -0.001 | [8] -0.011 | [9] -0.001 | [10] 0.033

P4HA1 isoform 2 (UniProt P13674)
inactive: [1] -0.039 | [2] 0.098 | [3] -0.069 | [4] -0.06 | [5] -0.118 | [6] -0.077 | [7] 0 | [8] -0.044 | [9] -0.026 | [10] -0.062

OXSM (UniProt Q9NWU1)
inactive: [1] -0.031 | [2] 0.013 | [3] 0.003 | [4] -0.014 | [5] 0.021 | [6] -0.008 | [7] 0.032 | [8] -0.009 | [9] 0.048 | [10] 0.057

NUP205 (UniProt Q92621)
inactive: [1] 0.03 | [2] -0.022 | [3] -0.018 | [4] 0.049 | [5] -0.008 | [6] -0.013 | [7] -0.06 | [8] -0.009 | [9] 0.035 | [10] 0.005

ORC3 isoform 2 (UniProt Q9UBD5)
inactive: [1] -0.006 | [2] -0.048 | [3] -0.046 | [4] 0.004 | [5] 0.053 | [6] -0.011 | [7] -0.045 | [8] -0.015 | [9] -0.007 | [10] -0.008

PAAT (UniProt Q9H8K7)
inactive: [1] 0.003 | [2] 0.078 | [3] 0.109 | [4] 0.017 | [5] 0.016 | [6] 0.029 | [7] -0.017 | [8] 0.02 | [9] -0.026 | [10] -0.004
